{
  "sequences": {"note": "Protein sequences, listed by entry. Tags and fused reporters are not part of them.", "UniProt Q14160": "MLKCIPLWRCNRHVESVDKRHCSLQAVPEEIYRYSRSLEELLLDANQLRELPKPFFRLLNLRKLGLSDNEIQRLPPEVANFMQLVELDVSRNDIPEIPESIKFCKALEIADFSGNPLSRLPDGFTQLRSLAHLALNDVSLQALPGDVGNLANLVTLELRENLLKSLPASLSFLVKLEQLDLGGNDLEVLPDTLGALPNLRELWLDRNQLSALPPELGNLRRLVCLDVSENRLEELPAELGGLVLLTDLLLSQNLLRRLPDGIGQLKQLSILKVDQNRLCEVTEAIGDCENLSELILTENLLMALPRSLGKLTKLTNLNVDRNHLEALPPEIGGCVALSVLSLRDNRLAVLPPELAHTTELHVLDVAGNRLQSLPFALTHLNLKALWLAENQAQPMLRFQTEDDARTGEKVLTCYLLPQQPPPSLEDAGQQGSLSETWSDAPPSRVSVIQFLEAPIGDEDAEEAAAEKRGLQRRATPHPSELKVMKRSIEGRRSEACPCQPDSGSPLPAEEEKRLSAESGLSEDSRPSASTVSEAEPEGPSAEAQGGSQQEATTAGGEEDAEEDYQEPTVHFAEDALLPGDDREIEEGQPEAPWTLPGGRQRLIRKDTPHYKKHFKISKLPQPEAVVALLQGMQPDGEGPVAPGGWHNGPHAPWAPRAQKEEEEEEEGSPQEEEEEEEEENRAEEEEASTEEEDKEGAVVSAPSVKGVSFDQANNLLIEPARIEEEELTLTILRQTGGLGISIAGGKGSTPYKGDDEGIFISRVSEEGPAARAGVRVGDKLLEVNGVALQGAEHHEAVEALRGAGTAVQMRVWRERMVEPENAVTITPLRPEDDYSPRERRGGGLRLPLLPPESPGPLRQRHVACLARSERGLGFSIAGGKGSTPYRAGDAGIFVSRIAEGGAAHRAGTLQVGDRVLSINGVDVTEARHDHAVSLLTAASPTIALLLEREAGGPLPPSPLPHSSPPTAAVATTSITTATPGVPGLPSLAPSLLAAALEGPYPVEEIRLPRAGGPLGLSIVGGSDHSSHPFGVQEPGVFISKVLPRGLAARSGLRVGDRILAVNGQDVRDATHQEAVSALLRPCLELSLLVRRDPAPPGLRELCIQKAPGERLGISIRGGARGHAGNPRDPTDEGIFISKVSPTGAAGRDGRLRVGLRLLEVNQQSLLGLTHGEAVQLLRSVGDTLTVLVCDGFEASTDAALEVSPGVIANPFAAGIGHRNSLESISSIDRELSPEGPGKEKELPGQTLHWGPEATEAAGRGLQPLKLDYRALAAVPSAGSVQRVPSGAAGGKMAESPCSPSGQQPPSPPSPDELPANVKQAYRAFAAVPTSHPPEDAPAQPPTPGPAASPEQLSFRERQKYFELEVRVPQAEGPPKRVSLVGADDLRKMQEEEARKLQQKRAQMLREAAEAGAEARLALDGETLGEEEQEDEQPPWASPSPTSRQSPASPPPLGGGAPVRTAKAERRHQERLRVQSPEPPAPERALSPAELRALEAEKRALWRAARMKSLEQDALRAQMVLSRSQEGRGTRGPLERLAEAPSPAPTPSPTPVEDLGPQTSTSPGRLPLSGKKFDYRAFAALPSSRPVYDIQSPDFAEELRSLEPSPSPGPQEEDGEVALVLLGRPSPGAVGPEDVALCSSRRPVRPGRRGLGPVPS"},
  "source": "paper PMC10424150",
  "biological_target": "T1, FLAG-TRAF7, full-length human TRAF7 (human) (UniProt Q6Q0C0)",
  "T1 sequence": "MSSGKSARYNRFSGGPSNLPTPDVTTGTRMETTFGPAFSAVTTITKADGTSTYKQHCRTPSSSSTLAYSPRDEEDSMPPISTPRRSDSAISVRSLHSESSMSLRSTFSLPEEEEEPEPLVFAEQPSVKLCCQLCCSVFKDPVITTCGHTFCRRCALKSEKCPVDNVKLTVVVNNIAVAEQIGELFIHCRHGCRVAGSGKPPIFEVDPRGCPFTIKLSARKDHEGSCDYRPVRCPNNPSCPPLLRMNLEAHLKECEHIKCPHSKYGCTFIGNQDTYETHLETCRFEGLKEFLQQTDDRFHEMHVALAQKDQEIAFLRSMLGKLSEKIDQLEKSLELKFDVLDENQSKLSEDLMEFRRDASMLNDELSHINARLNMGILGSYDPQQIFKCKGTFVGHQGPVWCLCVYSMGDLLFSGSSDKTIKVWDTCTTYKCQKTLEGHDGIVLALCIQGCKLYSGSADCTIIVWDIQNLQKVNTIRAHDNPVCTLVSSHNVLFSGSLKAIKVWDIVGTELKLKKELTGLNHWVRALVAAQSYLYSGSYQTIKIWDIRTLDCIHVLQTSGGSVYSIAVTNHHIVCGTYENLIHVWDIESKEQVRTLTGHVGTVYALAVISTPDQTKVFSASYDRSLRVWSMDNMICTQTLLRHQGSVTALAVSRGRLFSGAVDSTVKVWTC",
  "experiment": "affinity purification with mass spectrometry; FLAG-TRAF7 precipitates from HEK293 on anti-FLAG beads, gel segments digested with trypsin, ion trap MS/MS; proteins precipitated with BAP beads subtracted",
  "note": "Results are given in words; binding and its absence hold for the method and conditions named. Binding seen in cells or lysates may run through a third protein. These calls come from enrichment with a bait or labelling near it, and not all partners need be listed. Sequences can lack the tags named with a protein.",
  "data": [
    {"substance": "planar cell polarity protein scribble homolog (SCRIB), endogenous (from UniProt Q14160 1-1655)", "values": [
      {"measurement": "binding", "result": "binds"}
    ]}
  ]
}
